Source: ChEMBL document CHEMBL4303122, “Identification of potential treatments for COVID-19 through artificial intelligence-enabled phenomic analysis of human cells infected with SARS-CoV-2” (2020)
In all, about 1,600 compounds were measured (“Hit score”: median about 0.13, highest 2% from about 0.46 on). This is one part of the list.

Tested on: SARS-CoV-2
Experiment: Antiviral activity against SARS-CoV-2 (USA-WA1/2020 strain) measured by imaging in HRCE cells at MOI 0.4 after 96 hrs (reported as hit score from 0-1 for on-disease vs off-disease activity: scores >0.6 considered hits)
Type: functional, Homo sapiens

| SMILES | Hit score |
| --- | --- |
| NCC(=O)CCC(=O)O [AMINOLEVULINIC ACID] | 0.04501 |
| Cl.O=C1c2cccc3c2[C@H](CCC3)CN1[C@@H]1CN2CCC1CC2 [PALONOSETRON HYDROCHLORIDE] | 0.1883 |
| O=C(CCCN1CCC(O)(c2ccc(Cl)cc2)CC1)c1ccc(F)cc1 [HALOPERIDOL] | 0.212 |
| Cc1nc(C)c(C)nc1C.Cl [LIGUSTRAZINE HYDROCHLORIDE] | 0.08486 |
| C[C@]12CC[C@@H]3c4ccc(O)cc4CC[C@H]3[C@@H]1CC[C@@H]2OC(=O)CCC1CCCC1 [ESTRADIOL CYPIONATE] | 0.1681 |
| O=C(O)C[C@H](O)C[C@H](O)/C=C/c1c(C2CC2)nc2ccccc2c1-c1ccc(F)cc1 [PITAVASTATIN] | -0.1096 |
| Cc1ccc(C)c(OCCCC(C)(C)C(=O)O)c1 [GEMFIBROZIL] | 0.05216 |
| O=C(O)c1ccc(NC(=O)[C@H](Cc2ccc(O)cc2)NC(=O)c2ccccc2)cc1 [BENTIROMIDE] | 0.2686 |
| Nc1ccncc1N [AMIFAMPRIDINE] | 0.1603 |
| COC(=O)[C@@H](N)Cc1ccc(O)c(O)c1 [MELEVODOPA] | 0.204 |
| NCCS [CYSTEAMINE] | 0.253 |
| COCCOC(=O)C1=C(C)NC(C)=C(C(=O)OC(C)C)C1c1cccc([N+](=O)[O-])c1 (centres undefined) [NIMODIPINE] | 0.09541 |
| CN1C(C(=O)Nc2ccccn2)=C(O)c2ccccc2S1(=O)=O [PIROXICAM] | 0.07142 |
| COc1c(C)c2c(c(O)c1C/C=C(\C)CCC(=O)OCCN1CCOCC1)C(=O)OC2 [MYCOPHENOLATE MOFETIL] | 0.08086 |
| O=C(O)c1ccc(-n2nc(-c3ccccc3O)nc2-c2ccccc2O)cc1 [DEFERASIROX] | 0.06618 |
| NNC(=O)CN1C(=O)CN=C(c2ccccc2)c2cc(Br)ccc21 | 0.07373 |
| O=C(Nc1nc(-c2cc(Cl)cs2)c(N2CCN(C3CCCCC3)CC2)s1)c1cnc(N2CCC(C(=O)O)CC2)c(Cl)c1 [AVATROMBOPAG] | 0.04204 |
| CO[C@]12C[C@@H](COC(=O)c3cncc(Br)c3)CN(C)[C@@H]1Cc1cn(C)c3cccc2c13 [NICERGOLINE] | 0.1321 |
| Cc1cc(C#N)cc(C)c1Oc1nc(Nc2ccc(C#N)cc2)nc(N)c1Br [ETRAVIRINE] | -0.08885 |
| CC1(C)S[C@@H]2[C@H](NC(=O)COc3ccccc3)C(=O)N2[C@H]1C(=O)O [PENICILLIN V] | 0.002553 |
| CC(C)NC(=N)NC(=N)Nc1ccc(Cl)cc1 [PROGUANIL] | 0.102 |
| c1cc(CN2CCCNCCNCCCNCC2)ccc1CN1CCCNCCNCCCNCC1 [PLERIXAFOR] | 0.1129 |
| COC(=O)N[C@@H](C)CNc1nccc(-c2cn(C(C)C)nc2-c2cc(Cl)cc(NS(C)(=O)=O)c2F)n1 [ENCORAFENIB] | 0.2561 |
| CN(Cc1ccc(C(C)(C)C)cc1)Cc1cccc2ccccc12 [BUTENAFINE] | 0.15 |
| Cc1ccccc1C(=O)Nc1ccc(C(=O)N2CCCC(N(C)C)c3ccccc32)cc1 (centres undefined) [MOZAVAPTAN] | 0.1836 |

| SMILES | Hit score |
| --- | --- |
| CC(=O)CC(c1ccc([N+](=O)[O-])cc1)c1c(O)c2ccccc2oc1=O (centres undefined) [ACENOCOUMAROL] | 0.2854 |
| Cn1nnc(-c2ccc(-c3ccc(N4C[C@H](CO)OC4=O)cc3F)cn2)n1 [TEDIZOLID] | 0.1987 |
| Cc1cccc(Nc2ccncc2S(=O)(=O)NC(=O)NC(C)C)c1 [TORSEMIDE] | 0.1161 |
| CC(C)OC(=O)[C@H](C)N[P@](=O)(CO[C@H](C)Cn1cnc2c(N)ncnc21)Oc1ccccc1 [TENOFOVIR ALAFENAMIDE] | 0.2046 |
| C/C(=C\C(=O)OCCCCCCCCC(=O)O)C[C@@H]1OC[C@H](C[C@@H]2O[C@H]2[C@@H](C)[C@H](C)O)[C@@H](O)[C@H]1O [MUPIROCIN] | 0.06424 |
| CC(C)Cn1cnc2c(N)nc3ccccc3c21 [IMIQUIMOD] | 0.02596 |
| NC(=O)N1c2ccccc2CC(=O)c2ccccc21 [OXCARBAZEPINE] | 0.212 |
| NC1=NCC2c3ccccc3Cc3ccccc3N12 (centres undefined) [EPINASTINE] | -0.03911 |
| O=C(O)CCC(=O)O [SUCCINIC ACID] | 0.1442 |
| Cc1cccn2c(=O)c(-c3nnn[nH]3)cnc12 [PEMIROLAST] | 0.101 |
| CCOCCn1c(N2CCCN(C)CC2)nc2ccccc21 [EMEDASTINE] | 0.1159 |
| O=S(=O)(c1cccc2c(Cl)cccc12)N1CCCNCC1 | 0.1361 |
| C[N+]12CCCC[C@@H]1CCC(=C(c1cccs1)c1cccs1)C2 (some centres undefined) | 0.195 |
| O=C(CCCN1CCC2(CC1)C(=O)NCN2c1ccccc1)c1ccc(F)cc1 [SPIPERONE] | 0.05718 |
| COc1cc2c(cc1Cc1cccc(Cl)c1F)c(=O)c(C(=O)O)cn2[C@H](CO)C(C)C | 0.1404 |
| COc1ccc2c(c1)c(CC(=O)OCC(=O)O)c(C)n2C(=O)c1ccc(Cl)cc1 [ACEMETACIN] | 0.1062 |
| CC(=O)NC[C@H]1CN(c2ccc(N3CCOCC3)c(F)c2)C(=O)O1 [LINEZOLID] | 0.0228 |
| Cc1nccn1CC1CCc2c(c3ccccc3n2C)C1=O (centres undefined) [ONDANSETRON] | 0.03849 |
| CCOCCOC(=O)/C=C/c1ccc(OC)cc1 [CINOXATE] | 0.1586 |
| CN(C)C(=O)c1cc2cnc(Nc3ccc(N4CCNCC4)cn3)nc2n1C1CCCC1 [RIBOCICLIB] | 0.1227 |
| Cc1cccc(C)c1NC(=O)CN1CCN(CCCC(c2ccc(F)cc2)c2ccc(F)cc2)CC1 [LIDOFLAZINE] | 0.2006 |
| Nc1nnc(-c2cccc(Cl)c2Cl)c(N)n1 [LAMOTRIGINE] | 0.0758 |
| C[C@@H]1CC[C@H]2C(C)(C)[C@H]3C[C@@]12CC[C@@]3(C)O [CEDROL] | 0.05802 |
| O=C(OCC(O)CO)c1ccccc1Nc1ccnc2c(C(F)(F)F)cccc12 (centres undefined) [FLOCTAFENINE] | 0.3441 |
| CC(=O)NC(CCC(N)=O)C(=O)O (centres undefined) | 0.2051 |

Grouped by structure, the entries above containing a nitro group on carbon.

| SMILES | Hit score |
| --- | --- |
| COCCOC(=O)C1=C(C)NC(C)=C(C(=O)OC(C)C)C1c1cccc([N+](=O)[O-])c1 (centres undefined) [NIMODIPINE] | 0.09541 |
| CC(=O)CC(c1ccc([N+](=O)[O-])cc1)c1c(O)c2ccccc2oc1=O (centres undefined) [ACENOCOUMAROL] | 0.2854 |

Later entries

| SMILES | Hit score |
| --- | --- |
| CC(=O)O[C@]1(C(C)=O)CC[C@H]2[C@@H]3C=C(Cl)C4=CC(=O)CC[C@]4(C)[C@H]3CC[C@@]21C [CHLORMADINONE ACETATE] | 0.249 |
| CNC(C)CCC=C(C)C.CNC(C)CCC=C(C)C.O=C(O)[C@@H](O)[C@H](O)[C@H](O)[C@@H](O)C(=O)O [ISOMETHEPTENE MUCATE] | 0.06837 |
| NCC1(CC(=O)O)CCCCC1 [GABAPENTIN] | 0.1022 |
| O=c1ncnc2n([C@H]3O[C@@H](CO)[C@H](O)[C@@H]3O)[nH]cc1-2 [ALLOPURINOL RIBOSIDE] | 0.1953 |
| C/C(O)=C(\C#N)C(=O)Nc1ccc(C(F)(F)F)cc1 [TERIFLUNOMIDE] | 0.133 |
| N[C@@H](CC(=O)N1CCn2c(nnc2C(F)(F)F)C1)Cc1cc(F)c(F)cc1F [SITAGLIPTIN] | 0.1962 |
| CN(C)C(=O)N[C@H]1CC[C@H](CCN2CCN(c3cccc(Cl)c3Cl)CC2)CC1 [CARIPRAZINE] | 0.1969 |
| O=C(O[C@H]1C[C@H]2CC[C@@H](C1)[N+]21CCCC1)C(O)(c1ccccc1)c1ccccc1 [TROSPIUM] | 0.08693 |
| CC(O)(CS(=O)(=O)c1ccc(F)cc1)C(=O)Nc1ccc(C#N)c(C(F)(F)F)c1 (centres undefined) [BICALUTAMIDE] | 0.2724 |
| N=C(N)N1CCc2ccccc2C1 [DEBRISOQUIN] | 0.1524 |
| CC(=O)/N=c1/sc(S(N)(=O)=O)nn1C [METHAZOLAMIDE] | 0.146 |
| CC1(C)S[C@@H]2[C@H](NC(=O)Cc3ccccc3)C(=O)N2[C@H]1C(=O)O [PENICILLIN G] | 0.164 |
| COCCCOc1cc(C[C@@H](C[C@H](N)[C@@H](O)C[C@H](C(=O)NCC(C)(C)C(N)=O)C(C)C)C(C)C)ccc1OC | 0.2097 |
| CCCc1nc2c(C)cc(-c3nc4ccccc4n3C)cc2n1Cc1ccc(-c2ccccc2C(=O)O)cc1 | 0.1182 |
| CC(C)N(CCc1c[nH]c2ccccc12)C(C)C | 0.03523 |
| CCOC(=O)N1CSC[C@H]1C(=O)O [TELMESTEINE] | 0.3645 |
| CC[N+](CC)(CCNC(=O)C(=O)NCC[N+](CC)(CC)Cc1ccccc1Cl)Cc1ccccc1Cl [AMBENONIUM] | 0.1681 |
| CC(=O)O.CCCC[C@H](NC(C)=O)C(=O)N[C@H]1CC(=O)NCCCC[C@@H](C(=O)O)NC(=O)[C@H](Cc2c[nH]c3ccccc23)NC(=O)[C@H](CCCNC(=N)N)NC(=O)[C@@H](Cc2ccccc2)NC(=O)[C@H](Cc2c[nH]cn2)NC1=O [BREMELANOTIDE ACETATE] | 0.08694 |
| Cc1ccc(C(=O)C(C)CN2CCCCC2)cc1 (centres undefined) [TOLPERISONE] | 0.08796 |
| Cc1ncsc1CCCl [CLOMETHIAZOLE] | 0.1545 |
| CNCC[C@@H](Oc1ccccc1C)c1ccccc1 [ATOMOXETINE] | 0.09173 |
| CC(C)(O)CNc1nc(Nc2ccnc(C(F)(F)F)c2)nc(-c2cccc(C(F)(F)F)n2)n1 [ENASIDENIB] | 0.1439 |
| COCCCOc1ccnc(C[S+]([O-])c2nc3ccccc3[nH]2)c1C (centres undefined) [RABEPRAZOLE] | 0.0917 |
| Cc1cc(Nc2ncc(Cl)c(Nc3ccccc3S(=O)(=O)C(C)C)n2)c(OC(C)C)cc1C1CCNCC1 [CERITINIB] | 0.03368 |

Looked up above:
`CC[N+](CC)(CCNC(=O)C(=O)NCC[N+](CC)(CC)Cc1ccccc1Cl)Cc1ccccc1Cl` [AMBENONIUM] | Hit score: 0.1681
`O=c1ncnc2n([C@H]3O[C@@H](CO)[C@H](O)[C@@H]3O)[nH]cc1-2` [ALLOPURINOL RIBOSIDE] | Hit score: 0.1953
